{
  "source": "the supplement of paper PMC8728848",
  "binders": {"B1": {"name": "SUN4 (Saccharomyces cerevisiae), P53616 (protein)", "chain": "MGSSHHHHHHSSGLVPRGSHNGSIYGDLADFSGPYEKFEDGTIPCGQFPSGQGVIPISWLDEGGWSGVENTDTSTGGSCKEGSYCSYACQPGMSKTQWPSDQPSDGRSIGGLLCKDGYLYRSNTDTDYLCEWGVDAAYVVSELSNDVAICRTDYPGTENMVIPTYVQAGDSLPLTVVDQDTYYTWQGLKTSAQYYVNNAGISVEDACVWGSSSSGVGNWAPLNFGAGSSDGVAYLSLIPNPNNGNALNFNVKIVAADDSSTVNGECIYENGSFSGGSDGCTVSVTAGKAKFVLYN"}},
  "assay_in_all_cases": "glycan array binding signal (z-score within array); higher = stronger binding",
  "conditions_in_all_cases": "glycan notation: IUPAC condensed, linker removed",
  "key": {"[1]": {"biological_target": "Neu5Ac(a2-3)Gal6S(b1-4)[Fuc(a1-3)]GlcNAc", "procedure,_shortened": "(§1)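 From the Consortium for Functional Glycomics database, 3228 arrays were curated, keeping only those whose protein sequence was available. Binding is given as a within-array Z-score averaged across arrays sharing a protein sequence and across linkers. Negative Z-scores can be read as non-binding.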"}, "Neu5Ac(a2-3)GalNAc": {"biological_target": "Neu5Ac(a2-3)GalNAc", "procedure,_shortened": "as §1"}, "[2]": {"biological_target": "Neu5Ac(a2-3)GalNAc(b1-4)GlcNAc", "procedure,_shortened": "as §1"}, "[3]": {"biological_target": "Neu5Ac(a2-3)[GalNAc(b1-4)]Gal(b1-4)Glc", "procedure,_shortened": "as §1"}, "[4]": {"biological_target": "Neu5Ac(a2-3)[GalNAc(b1-4)]Gal(b1-4)GlcNAc", "procedure,_shortened": "as §1"}, "[5]": {"biological_target": "Neu5Ac(a2-3)[GalNAc(b1-4)]Gal(b1-4)GlcNAc(b1-3)GalNAc", "procedure,_shortened": "as §1"}, "[6]": {"biological_target": "Neu5Ac(a2-3)[Neu5Ac(a2-6)]GalNAc", "procedure,_shortened": "as §1"}, "Neu5Ac(a2-6)Gal": {"biological_target": "Neu5Ac(a2-6)Gal", "procedure,_shortened": "as §1"}, "[7]": {"biological_target": "Neu5Ac(a2-6)Gal(b1-3)GlcNAc(b1-3)[Gal(b1-4)GlcNAc(b1-6)]Gal(b1-4)Glc", "procedure,_shortened": "as §1"}, "Neu5Ac(a2-6)Gal(b1-4)Glc": {"biological_target": "Neu5Ac(a2-6)Gal(b1-4)Glc", "procedure,_shortened": "as §1"}, "[8]": {"biological_target": "Neu5Ac(a2-6)Gal(b1-4)GlcNAc", "procedure,_shortened": "as §1"}, "[9]": {"biological_target": "Neu5Ac(a2-6)Gal(b1-4)GlcNAc(b1-2)Man", "procedure,_shortened": "as §1"}, "[10]": {"biological_target": "Neu5Ac(a2-6)Gal(b1-4)GlcNAc(b1-2)Man(a1-3)Man(b1-4)GlcNAc(b1-4)GlcNAc", "procedure,_shortened": "as §1"}, "[11]": {"biological_target": "Neu5Ac(a2-6)Gal(b1-4)GlcNAc(b1-2)Man(a1-3)[Gal(b1-4)GlcNAc(b1-2)Man(a1-6)]Man(b1-4)GlcNAc(b1-4)GlcNAc", "procedure,_shortened": "as §1"}, "[12]": {"biological_target": "Neu5Ac(a2-6)Gal(b1-4)GlcNAc(b1-2)Man(a1-3)[GlcNAc(b1-2)Man(a1-6)]Man(b1-4)GlcNAc(b1-4)GlcNAc", "procedure,_shortened": "as §1"}, "[13]": {"biological_target": "Neu5Ac(a2-6)Gal(b1-4)GlcNAc(b1-2)Man(a1-3)[GlcNAc(b1-4)][Neu5Ac(a2-6)Gal(b1-4)GlcNAc(b1-2)Man(a1-6)]Man(b1-4)GlcNAc(b1-4)GlcNAc", "procedure,_shortened": "as §1"}, "[14]": {"biological_target": "Neu5Ac(a2-6)Gal(b1-4)GlcNAc(b1-2)Man(a1-3)[Man(a1-6)]Man(b1-4)GlcNAc(b1-4)GlcNAc", "procedure,_shortened": "as §1"}, "[15]": {"biological_target": "Neu5Ac(a2-6)Gal(b1-4)GlcNAc(b1-2)Man(a1-3)[Neu5Ac(a2-3)Gal(b1-4)GlcNAc(b1-2)Man(a1-6)]Man(b1-4)GlcNAc(b1-4)GlcNAc", "procedure,_shortened": "as §1"}, "[16]": {"biological_target": "Neu5Ac(a2-6)Gal(b1-4)GlcNAc(b1-2)Man(a1-3)[Neu5Ac(a2-6)Gal(b1-4)GlcNAc(b1-2)Man(a1-6)]Man(b1-4)GlcNAc(b1-4)GlcNAc", "procedure,_shortened": "as §1"}, "[17]": {"biological_target": "Neu5Ac(a2-6)Gal(b1-4)GlcNAc(b1-2)Man(a1-3)[Neu5Ac(a2-6)Gal(b1-4)GlcNAc(b1-2)Man(a1-6)]Man(b1-4)GlcNAc(b1-4)[Fuc(a1-6)]GlcNAc", "procedure,_shortened": "as §1"}, "[18]": {"biological_target": "Neu5Ac(a2-6)Gal(b1-4)GlcNAc(b1-2)Man(a1-6)Man(b1-4)GlcNAc(b1-4)GlcNAc", "procedure,_shortened": "as §1"}, "[19]": {"biological_target": "Neu5Ac(a2-6)Gal(b1-4)GlcNAc(b1-2)Man(a1-6)[Gal(b1-4)GlcNAc(b1-2)Man(a1-3)]Man(b1-4)GlcNAc(b1-4)GlcNAc", "procedure,_shortened": "as §1"}, "[20]": {"biological_target": "Neu5Ac(a2-6)Gal(b1-4)GlcNAc(b1-2)Man(a1-6)[GlcNAc(b1-2)Man(a1-3)]Man(b1-4)GlcNAc(b1-4)GlcNAc", "procedure,_shortened": "as §1"}, "[21]": {"biological_target": "Neu5Ac(a2-6)Gal(b1-4)GlcNAc(b1-2)Man(a1-6)[Man(a1-3)]Man(b1-4)GlcNAc(b1-4)GlcNAc", "procedure,_shortened": "as §1"}, "[22]": {"biological_target": "Neu5Ac(a2-6)Gal(b1-4)GlcNAc(b1-2)[Neu5Ac(a2-6)Gal(b1-4)GlcNAc(b1-4)]Man(a1-3)[GlcNAc(b1-4)][Neu5Ac(a2-6)Gal(b1-4)GlcNAc(b1-2)[Neu5Ac(a2-6)Gal(b1-4)GlcNAc(b1-6)]Man(a1-6)]Man(b1-4)GlcNAc(b1-4)GlcNAc", "procedure,_shortened": "as §1"}, "[23]": {"biological_target": "Neu5Ac(a2-6)Gal(b1-4)GlcNAc(b1-2)[Neu5Ac(a2-6)Gal(b1-4)GlcNAc(b1-4)]Man(a1-3)[GlcNAc(b1-4)][Neu5Ac(a2-6)Gal(b1-4)GlcNAc(b1-4)Man(a1-6)]Man(b1-4)GlcNAc(b1-4)GlcNAc", "procedure,_shortened": "as §1"}, "[24]": {"biological_target": "Neu5Ac(a2-6)Gal(b1-4)GlcNAc(b1-2)[Neu5Ac(a2-6)Gal(b1-4)GlcNAc(b1-6)]Man(a1-6)[Neu5Ac(a2-6)Gal(b1-4)GlcNAc(b1-2)Man(a1-3)][GlcNAc(b1-4)]Man(b1-4)GlcNAc(b1-4)GlcNAc", "procedure,_shortened": "as §1"}, "[25]": {"biological_target": "Neu5Ac(a2-6)Gal(b1-4)GlcNAc(b1-3)Gal(b1-3)GlcNAc", "procedure,_shortened": "as §1"}, "[26]": {"biological_target": "Neu5Ac(a2-6)Gal(b1-4)GlcNAc(b1-3)Gal(b1-4)GlcNAc", "procedure,_shortened": "as §1"}, "[27]": {"biological_target": "Neu5Ac(a2-6)Gal(b1-4)GlcNAc(b1-3)Gal(b1-4)GlcNAc(b1-2)Man(a1-3)[Neu5Ac(a2-6)Gal(b1-4)GlcNAc(b1-3)Gal(b1-4)GlcNAc(b1-2)Man(a1-6)]GalNAc", "procedure,_shortened": "as §1"}, "[28]": {"biological_target": "Neu5Ac(a2-6)Gal(b1-4)GlcNAc(b1-3)Gal(b1-4)GlcNAc(b1-3)Gal(b1-4)GlcNAc", "procedure,_shortened": "as §1"}, "[29]": {"biological_target": "Neu5Ac(a2-6)Gal(b1-4)GlcNAc(b1-3)Gal(b1-4)GlcNAc(b1-3)Gal(b1-4)GlcNAc(b1-2)Man(a1-3)[Neu5Ac(a2-6)Gal(b1-4)GlcNAc(b1-3)Gal(b1-4)GlcNAc(b1-3)Gal(b1-4)GlcNAc(b1-2)Man(a1-6)]GalNAc", "procedure,_shortened": "as §1"}, "[30]": {"biological_target": "Neu5Ac(a2-6)Gal(b1-4)GlcNAc(b1-3)Gal(b1-4)GlcNAc(b1-3)GalNAc", "procedure,_shortened": "as §1"}, "[31]": {"biological_target": "Neu5Ac(a2-6)Gal(b1-4)GlcNAc(b1-3)Gal(b1-4)GlcNAc(b1-3)[Neu5Ac(a2-6)Gal(b1-4)GlcNAc(b1-3)Gal(b1-4)GlcNAc(b1-6)]GalNAc", "procedure,_shortened": "as §1"}, "[32]": {"biological_target": "Neu5Ac(a2-6)Gal(b1-4)GlcNAc(b1-3)Gal(b1-4)GlcNAc(b1-6)[Gal(b1-3)]GalNAc", "procedure,_shortened": "as §1"}, "[33]": {"biological_target": "Neu5Ac(a2-6)Gal(b1-4)GlcNAc(b1-3)Gal(b1-4)[Fuc(a1-3)]GlcNAc(b1-3)Gal(b1-4)[Fuc(a1-3)]GlcNAc", "procedure,_shortened": "as §1"}, "[34]": {"biological_target": "Neu5Ac(a2-6)Gal(b1-4)GlcNAc(b1-3)GalNAc", "procedure,_shortened": "as §1"}},
  "note": "Some of the results follow.",
  "data": [
    {"binder": "B1", "values": [
      {"measurement": "glycan array binding signal (z-score)", "setting": "[1]", "value": -0.936},
      {"measurement": "glycan array binding signal (z-score)", "setting": "Neu5Ac(a2-3)GalNAc", "value": -0.321},
      {"measurement": "glycan array binding signal (z-score)", "setting": "[2]", "value": -0.371},
      {"measurement": "glycan array binding signal (z-score)", "setting": "[3]", "value": 0.365},
      {"measurement": "glycan array binding signal (z-score)", "setting": "[4]", "value": -0.706},
      {"measurement": "glycan array binding signal (z-score)", "setting": "[5]", "value": -0.441},
      {"measurement": "glycan array binding signal (z-score)", "setting": "[6]", "value": 0.557},
      {"measurement": "glycan array binding signal (z-score)", "setting": "Neu5Ac(a2-6)Gal", "value": 1.38},
      {"measurement": "glycan array binding signal (z-score)", "setting": "[7]", "value": -0.91},
      {"measurement": "glycan array binding signal (z-score)", "setting": "Neu5Ac(a2-6)Gal(b1-4)Glc", "value": -0.344},
      {"measurement": "glycan array binding signal (z-score)", "setting": "[8]", "value": -0.205},
      {"measurement": "glycan array binding signal (z-score)", "setting": "[9]", "value": -0.293},
      {"measurement": "glycan array binding signal (z-score)", "setting": "[10]", "value": -0.036},
      {"measurement": "glycan array binding signal (z-score)", "setting": "[11]", "value": -0.726},
      {"measurement": "glycan array binding signal (z-score)", "setting": "[12]", "value": -0.903},
      {"measurement": "glycan array binding signal (z-score)", "setting": "[13]", "value": 0.646},
      {"measurement": "glycan array binding signal (z-score)", "setting": "[14]", "value": 0.926},
      {"measurement": "glycan array binding signal (z-score)", "setting": "[15]", "value": -0.297},
      {"measurement": "glycan array binding signal (z-score)", "setting": "[16]", "value": 0.023},
      {"measurement": "glycan array binding signal (z-score)", "setting": "[17]", "value": 0.827},
      {"measurement": "glycan array binding signal (z-score)", "setting": "[18]", "value": 0.342},
      {"measurement": "glycan array binding signal (z-score)", "setting": "[19]", "value": -0.358},
      {"measurement": "glycan array binding signal (z-score)", "setting": "[20]", "value": -0.298},
      {"measurement": "glycan array binding signal (z-score)", "setting": "[21]", "value": 1.05},
      {"measurement": "glycan array binding signal (z-score)", "setting": "[22]", "value": 1.09},
      {"measurement": "glycan array binding signal (z-score)", "setting": "[23]", "value": -0.299},
      {"measurement": "glycan array binding signal (z-score)", "setting": "[24]", "value": 1.28},
      {"measurement": "glycan array binding signal (z-score)", "setting": "[25]", "value": -0.754},
      {"measurement": "glycan array binding signal (z-score)", "setting": "[26]", "value": 0.015},
      {"measurement": "glycan array binding signal (z-score)", "setting": "[27]", "value": 0.933},
      {"measurement": "glycan array binding signal (z-score)", "setting": "[28]", "value": -0.333},
      {"measurement": "glycan array binding signal (z-score)", "setting": "[29]", "value": 0.851},
      {"measurement": "glycan array binding signal (z-score)", "setting": "[30]", "value": -0.016},
      {"measurement": "glycan array binding signal (z-score)", "setting": "[31]", "value": 0.082},
      {"measurement": "glycan array binding signal (z-score)", "setting": "[32]", "value": 0.227},
      {"measurement": "glycan array binding signal (z-score)", "setting": "[33]", "value": -0.564},
      {"measurement": "glycan array binding signal (z-score)", "setting": "[34]", "value": 0.242}
    ]}
  ]
}
